Experimental findings from patent US20250032477A1 (VINCERX PHARMA GMBH, priority 2021, published 2025) are described below.

The series can be described thus: general procedure: solution-phase peptide synthesis; HATU/DIEA. As to conditions: TFA salt.

As to “(1S,9S)-1-Amino-9-ethyl-5-fluoro-4-methyl-10,13-dioxo-2,3,9,10,13,15-hexahydro-1H,12H-benzo[de]pyrano[3′,4′:6,7]indolizino[1,2-b]quinolin-9-yl N-{2-[{2-[(2-aminoethyl)(methyl)amino]ethyl}(methyl)amino]ethyl}-N-methylglycyl-L-asparaginyl-L-prolyl-L-valinate trifluoroacetate (1:3)”, for the setting “late stage modification step”, the “crude purity (method not given)” value is given as 72% purity and the step yield amounted to 67% yield.

Consider “(7S)-7-Ethyl-8,11-dioxo-7,8,11,13-tetrahydro-2H,10H-[1,3]dioxolo[4,5-g]pyrano[3′,4′:6,7] indolizino [1,2-b]quinolin-7-yl N-methyl-N-(2,2,8,11-tetramethyl-4-oxo-3-oxa-5,8,11-triazatridecan-13-yl) glycyl-L-asparaginyl-L-prolyl-L-valinate”, for which, for the setting “coupling step”, the “final purity (method not given)” value is 93% purity and the step yield was 54% yield.

Turning to “Trifluoroacetic acid (1S,9S)-1-{[(benzyloxy)carbonyl]amino}-9-ethyl-5-fluoro-4-methyl-10,13-dioxo-2,3,9,10,13,15-hexahydro-1H,12H-benzo[de]pyrano[3′,4′:6,7]indolizino[1,2-b]quinolin-9-yl N-{2-[{2-[(2-aminoethyl)(methyl)amino]ethyl}(methyl)amino]ethyl}-N-methylglycyl-L-asparag”, where the note is “late stage modification step”, the “crude purity (method not given)” value came to 95% purity and the step yield is given as 80% yield.

With “Trifluoroacetic acid-(7S)-7-ethyl-8,11-dioxo-7,8,11,13-tetrahydro-2H,10H-[1,3]dioxolo[4,5-g]pyrano[3′,4′:6,7]indolizino[1,2-b]quinolin-7-yl N-{2-[{2-[(2-aminoethyl)(methyl)amino]ethyl} (methyl) amino]ethyl}-N-methylglycyl-L-asparaginyl-L-prolyl-L-valinate (1/1)”, for the setting “late stage modification step”, the “crude purity (method not given)” value was 100% purity and the step yield was found to be 99% yield.
